# Source: PubChem BioAssay AID623959 (National Center for Advancing Translational Sciences (NCATS), 2012)
# Sequences of proteins named here, by UniProt entry; tags and fusion partners are left off.
# UniProt Q8NER1, whole entry, looked up: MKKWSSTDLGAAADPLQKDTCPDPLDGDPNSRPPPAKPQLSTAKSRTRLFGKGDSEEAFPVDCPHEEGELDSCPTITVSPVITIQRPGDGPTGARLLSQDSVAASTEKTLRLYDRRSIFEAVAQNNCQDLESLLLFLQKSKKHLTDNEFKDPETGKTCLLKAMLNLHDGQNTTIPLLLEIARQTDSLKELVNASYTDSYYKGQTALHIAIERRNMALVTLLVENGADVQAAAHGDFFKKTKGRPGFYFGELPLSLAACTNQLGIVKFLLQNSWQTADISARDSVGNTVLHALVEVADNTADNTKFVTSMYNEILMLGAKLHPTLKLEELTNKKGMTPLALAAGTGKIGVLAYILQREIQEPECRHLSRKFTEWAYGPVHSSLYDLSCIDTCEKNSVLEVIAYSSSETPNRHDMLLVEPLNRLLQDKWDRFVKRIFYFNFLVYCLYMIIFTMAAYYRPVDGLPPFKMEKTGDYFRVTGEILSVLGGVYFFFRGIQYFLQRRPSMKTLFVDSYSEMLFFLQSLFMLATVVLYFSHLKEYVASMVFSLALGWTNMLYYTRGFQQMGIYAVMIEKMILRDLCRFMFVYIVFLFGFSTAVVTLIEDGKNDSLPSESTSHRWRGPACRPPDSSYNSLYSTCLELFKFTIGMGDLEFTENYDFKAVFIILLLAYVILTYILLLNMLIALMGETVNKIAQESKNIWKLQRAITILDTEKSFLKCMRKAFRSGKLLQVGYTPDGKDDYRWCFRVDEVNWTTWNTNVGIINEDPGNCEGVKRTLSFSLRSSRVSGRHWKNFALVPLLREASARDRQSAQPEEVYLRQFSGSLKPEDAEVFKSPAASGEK
# Hit rate of the full screen: of about 1,400 compounds, fewer than 10 were called active. Not shown: some 8% with an inconclusive outcome. The call rests on the fitted dose curve; in most records, active means well fitted curve in the direction sought with a large enough effect; inconclusive means small, poorly fitted or top-dose-only effect, or another doubt; inactive means no such curve, though single readings can be large or run the other way. The list shows a part of the results.
# Target: Transient receptor potential cation channel subfamily V member 1 (Homo sapiens) (UniProt Q8NER1)
# Assay: qHTS Assay for Compounds that Act as Potentiators of the Vanilloid Receptor 1: Hit Validation; further: % of control where 0% means no effect
# Conditions: TRPV1-expressing cells, Fluo-8 calcium influx, capsaicin EC20; series mostly up to 42.1 µM; activity change, positive = potentiation: at the top concentration
# Summary of the method: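 TRPV1 cells (2000/well, overnight 35.5 °C) loaded with Fluo-8 calcium dye 40–90 min at room temperature. FDSS fluorescence (ex 480/em 520 nm) read 3 min after compound, then 2 min after capsaicin at EC20.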
row,SMILES,"activity change, positive = potentiation"
1,COc1ccc(NC(=O)c2ccc3ncsc3c2)c2ccccc12,inactive: -37.3%
2,COc1ccccc1NC(=O)CCc1nc(-c2ccccc2F)no1,inactive: 1.7%
3,CC(CN1CCCCC1)OC(=O)COc1ccc(Cl)cc1 (configuration not stated),inactive: -13.3%
4,Cc1ccc(CNC(=O)[C@H](C)N2C(=O)N3CCc4c([nH]c5ccccc45)[C@@]3(C)C2=O)cc1,inactive: -1.45%
5,CCn1cc(C2CC(=O)NC2=O)c2ccccc21 (configuration not stated),inactive: -23.9%
6,COc1ccc(NC(=O)c2ccsc2NC(C)=O)cc1,inactive: -7.09%
7,O=C(Nc1ccccc1)c1ccc(NC2CCCCC2)c(S(=O)(=O)N2CCOCC2)c1,inactive: -38.1%
8,CC(C)Nc1nnc(SCC(=O)c2c[nH]c3ccccc23)s1,inactive: -5.56%
9,CCc1ccc(NC(=O)CNCc2ccc(OC)c(OC)c2)cc1,inactive: -34.2%
10,CC(=O)Nc1ccc(N=Cc2c(O)ccc3ccccc23)cc1,inactive: -28.1%
11,Cc1[nH]c2ccccc2c1CCN(Cc1cccnc1)C(=S)Nc1ccc(F)cc1,inactive: -6.06%
12,O=C(Cc1nc2ccccc2[nH]1)c1ccc(Cl)cc1,inactive: 3.7%
13,CCOC(=O)c1ccc(NC(=O)Oc2cc(C)c(Cl)cc2C(C)C)cc1,inactive: -7.93%
14,COc1ccc(C(=O)NC(CC(C)C)C(=O)O)cc1OC (configuration not stated),inactive: 3.51%
15,COc1ccc(CNC(=O)COC(=O)c2cc(-c3cccs3)nc3ccccc23)cc1OC,inactive: -38%
16,CC(=O)Oc1ccc(NC(=O)CCC2CCCCC2)c(C(=O)O)c1,inactive: 6.93%
17,Cc1ccc(NC(=O)N2CCCN(Cc3ccc(F)cc3)C2)cc1C,inactive: -6.13%
18,COC(=O)c1ccc(-n2c(C)nc(=O)c(-c3ccccc3)c2C)cc1,inactive: 8.04%
19,Cc1ccc(OCCCCn2ccnc2C)c(C)c1,inactive: -3.51%
20,CCN1C(=O)[C@@H]2[C@@H](c3ccc(-c4ccc(F)cc4)cc3)N3CCCC[C@@]3(C(=O)OC)[C@@H]2C1=O,inactive: -8.18%
21,COc1ccc(Nc2ncnc3c2oc2ccccc23)cc1,inactive: -38.6%
22,O=C(CCc1ccccc1)N1CCCC(Nc2ccc(F)cc2)C1 (configuration not stated),inactive: -39.1%
23,O=C(CSc1nnc(CNc2ccc(Cl)cc2)o1)Nc1nc2c(s1)CCCC2,inactive: 4.39%

row,SMILES,"activity change, positive = potentiation"
1,Cc1ccc(C)c(OCC(=O)Nc2ccc(N3CCOCC3)cc2)c1,inactive: 9.59%
2,COc1ccc(NC(=O)c2ccc3c(c2)N(C)CCS3)cc1,inactive: -37.9%
3,O=C(CSc1ccc(-c2ccccn2)nn1)NCc1ccccc1,inactive: -0.0558%
4,CSCCNC(=O)c1ccc2nc(C3CCCCC3)oc2c1,inactive: -38.4%
5,COc1ccc(NC2c3ccccc3C(=O)N2Cc2ccc3c(c2)OCO3)cc1 (configuration not stated),inactive: -38.7%
6,COC(=O)c1[nH]c2ccc(C)cc2c1NC(=O)CN1CCCC(C)(C)C1,inactive: -38.2%
7,O=C(Nc1cccnc1)c1ccc(N2CCCC2)c([N+](=O)[O-])c1,inactive: -38.2%
8,Cn1c(=O)c2c(nc3sccn32)n(C)c1=O,inactive: 2.52%
9,COC(=O)[C@@H]1C[C@@]2(O)[C@@H](O)[C@@H](O)[C@@H](O)C[C@H]2N1Cc1ccc(Cl)cc1,inactive: -4.11%
10,Cc1nc2c(-c3ccccc3)c(C)[nH]n2c(=O)c1Cl,inactive: -11.9%
11,CC(C)c1ccc(NC2CCCN(C(=O)c3ccco3)C2)cc1 (configuration not stated),inactive: -14.5% [at 41.5 µM]
12,CCOC(=O)[C@H]1[C@H]2COc3ccc(Cl)cc3[C@@H]2N2C(=O)c3ccc(C)cc3NC(=O)[C@@]12C,inactive: -38.4%
13,C=CCN1c2ccccc2[C@]23C[C@@H](C(=O)OC)N(C(=O)c4ccc(Br)cc4)C2=NC(C(=O)OC)=C(C(=O)OC)[C@H]13,inactive: -30.9%
14,CC(NC(=O)c1ccc(N(C)C)cc1)C(c1cccs1)N1CCN(C)CC1 (configuration not stated),inactive: 7.98%
15,Cc1oc(C(C)(C)C)cc1C(=O)N1CCCC1C(=O)O (configuration not stated),inactive: -8.94%
16,CC(C)(C)c1cc(C(=O)Nc2ccc(F)cc2)n(Cc2ccc(F)cc2)n1,inactive: -38.1%
17,CC(=O)CC[C@@H](C)O[C@@H]1OC(C)[C@H](O)CC1O (some centres not stated),inactive: -23.1%
18,CCOC(=O)C1CCN(C(=O)c2ccc(S(=O)(=O)Nc3ccccc3Cl)cc2)CC1,inactive: -5.16%
19,Cc1ccc(C(=O)NCC(=O)OCCOc2cccc(Cl)c2)cc1,inactive: -5.01%
20,Cc1ccc2nc(-c3ccccn3)cc(C(=O)Nc3ccc4c(c3)OCO4)c2c1,inactive: -39.2%
21,O=C(CN1CCN(S(=O)(=O)c2cccc(Br)c2)CC1)NCCc1cccs1,inactive: 3.99%
22,COC(=O)CCCC1=CC2=C(c3ccccc3)C(=O)C(C)(OC(=O)C3CCCC3)C(=O)C2=CN1Cc1ccc(OC)cc1 (configuration not stated),inactive: -4.83%
23,COc1ccc2c(c1)c1nc3ccccc3nc1n2CC(=O)OC(C)C,inactive: -4.2%

# Nothing new here: an excerpt of the list.
row,SMILES,"activity change, positive = potentiation"
10,Cc1nc2c(-c3ccccc3)c(C)[nH]n2c(=O)c1Cl,inactive: -11.9%
11,CC(C)c1ccc(NC2CCCN(C(=O)c3ccco3)C2)cc1 (configuration not stated),inactive: -14.5% [at 41.5 µM]
12,CCOC(=O)[C@H]1[C@H]2COc3ccc(Cl)cc3[C@@H]2N2C(=O)c3ccc(C)cc3NC(=O)[C@@]12C,inactive: -38.4%

# Continuation.

row,SMILES,"activity change, positive = potentiation"
1,Fc1ccccc1CNC(=S)NCc1ccc(Cl)cc1,inactive: -38.9%
2,O=c1ccn(Cc2ccccc2)c2ccccc12,inactive: -1.76%
3,N#Cc1ccc(/C=C\c2nccc3c2[nH]c2ccccc23)cc1,inactive: -38.4%
4,COc1ccc(C(=O)Nc2ccc(C3=NNC(=O)CC3C)cc2NC(=O)c2ccc(OC)cc2)cc1 (configuration not stated),inactive: -38.6%
5,Fc1ccccc1-c1n[nH]c(=S)n1/N=C/c1c[nH]c2ccccc12,inactive: -7.77%
6,CC(C)(C)C(=O)NNC(=O)c1ccc(Oc2cc(Cl)cc(Cl)c2)o1,inactive: 0.968%
7,COc1ccc(C)cc1N(CC(=O)NCCSCc1cccc(Cl)c1)S(C)(=O)=O,inactive: 4.99%
8,Cc1ccnc(NS(=O)(=O)c2ccc(NC(=O)CCOc3ccccc3)cc2)n1,inactive: -5.91%
9,Cc1cn(C(=O)C(C)N2C(=O)c3ccccc3C2=O)c(C)n1 (configuration not stated),inactive: -6.99%
10,CCN1/C(=C/C(=O)c2ccco2)Sc2ccccc21,inactive: -0.0633%
11,Cc1ccc(NC(=O)c2cc(S(=O)(=O)N3CCOCC3)ccc2F)c(C)c1,inactive: -31.2%
12,Cc1nc2ccccc2c(=O)n1CCc1ccccc1,inactive: -32%
13,CCC(=O)N(CCc1ccccc1)Cc1cc2cccc(C)c2[nH]c1=O,inactive: -38.2%
14,CC(=O)c1cc(-c2ccc(F)cc2)n(CCC(=O)Nc2cccnc2)c1C,inactive: -38.3%
15,C/C=C\C(=O)Nc1cccc(C2=NOC3(C2)C[C@@H](C(N)=O)N(C(=O)CCCCC)C3)c1 (some centres not stated),inactive: -11.3%
16,O=C1c2cccnc2C(Nc2ccccc2Br)N1Cc1ccco1 (configuration not stated),inactive: -5.99%
17,CCOc1ccccc1NC(=O)c1ccc2[nH]c(C)c(C)c2c1,inactive: -4.97%
18,COc1cccc(CCNC(=O)CCc2nnc(-c3cc(C)oc3C)o2)c1,inactive: -1.14%
19,CC(C)(C)OC(=O)NCCCC[C@H](NC(=O)c1nc[nH]c1C(=O)NCc1ccc(CNC(=O)OC(C)(C)C)cc1)C(=O)OC(C)(C)C,inactive: 0.195%
20,CC1CCN(C(=O)c2cc(-c3ccc4c(c3)OCO4)on2)CC1,inactive: -36.7%
21,CCOC(=O)[C@H]1[C@H]2COc3ccc(OC)cc3[C@@H]2N2C(=O)c3ccccc3NC(=O)[C@@]12C,inactive: -38.2%
